Experimental data: PubChem BioAssay AID2685 (National Center for Advancing Translational Sciences (NCATS), 2010)
Some of the results follow. These are further read-outs of the screen, such as a control signal, another cell line or another target. No call is given for them. Most of these compounds were active or inconclusive in the main read-out, so they are no random draw. Potencies come from curve fits of mixed quality, noted in brackets.

Assay: qHTS Assay for Lipid Storage Modulators in Drosophila S3 Cells;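 for cell number change: cells counted by Cell Tracker Red CMTPX staining in the red channel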
Conditions: BODIPY lipid droplet fluorescence, 18-24 h; for cell number change: measured here: cell count max response, cells fed with added oleic acid
Outline: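 Drosophila S3 cells got compounds at several concentrations plus oleic acid (400 uM solution). Laser-scanning cytometry with 488 nm excitation read lipid droplets at 500-530 nm and cells at 575-640 nm. Percent activity was relative to 20 uM Triacsin C.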

[1] = measured here: lipid fluorescence (Fed channel) AC50, cells fed with added oleic acid
[2] = measured here: cell number channel AC50, cells fed with added oleic acid

| SMILES | cell number change [%] | AC50 [1] | AC50 [2] |
| --- | --- | --- | --- |
| CCO[C@@H]1OC(C(=O)NCc2ccccc2)=C[C@H](C(C)(C)C)[C@H]1CCCO | 1.43 | 0.0164 µM [rising, full curve, poor fit] | – |
| CN(CC(=O)Nc1ccc(F)c(F)c1F)C(=O)c1ccc(=O)[nH]c1 | 17.3 | 0.58 µM [falling, single point] | – |
| COc1ccc(C(C)=O)cc1COC(=O)CCCN1C(=O)c2ccccc2C1=O | -30.3 | 29.1 µM [falling, single point] | 32.6 µM [falling, single point] |
| Cn1nc(-c2ccc(N3CCCCC3)c(NC(=O)c3ccco3)c2)c2ccccc2c1=O | – | – | 5.17 µM [rising, partial curve] |
| COc1cccc(C(=O)NCc2ccc3c(c2)OCO3)c1 | 7.37 | 23.1 µM [rising, single point] | – |
| O=C(O)c1cccc(N2C(=O)c3cc([N+](=O)[O-])cc4cc([N+](=O)[O-])cc(c34)C2=O)c1 | -65.6 | – | 23.1 µM [falling, single point] |
| CC(C)Cc1n[nH]c(=O)c2c1nnn2Cc1ccccc1F | 31.9 | 29.1 µM [rising, single point] | – |
| COc1ccc(-c2nn(CC(=O)NCCc3ccccc3)c(=S)n2C)cc1 | 17.8 | 3.66 µM [rising, full curve] | – |
| COc1ccc(/C(O)=C2\C(=O)C(=O)N(c3cc(C)on3)C2c2cccc(OC)c2OC)cc1C (stereo unspecified) | 6.66 | 29.1 µM [falling, single point] | – |
| Cc1ccc(-c2csc(N(CCCN3CCOCC3)C(=O)c3ccco3)n2)cc1 | – | – | 3.26 µM [rising, partial curve, poor fit] |
| Cc1nc(N(C)Cc2ccccc2)c2c(C)c(C)sc2n1 | – | 0.92 µM [falling, full curve, poor fit] | – |
| CN(c1ccccc1)c1cc(=O)[nH]c(=O)[nH]1 | -24.7 | 0.731 µM [falling, full curve] | 0.731 µM [falling, full curve, poor fit] |
| O=C(CN1CCN(c2ccccc2O)CC1)NC(=O)NCc1ccccc1 | -0.778 | – | – |
| CCN(CC)CCNC(=O)CNC(=O)c1nn(-c2ccc(OC)c(OC)c2)c(=O)c2ccccc12 | -20.7 | 6.51 µM [falling, single point] | 0.103 µM [falling, full curve, poor fit] |
| Cc1cccc(Nc2ncnc3onc(-c4cccc(Cl)c4)c23)c1 | 17.8 | – | – |
| Cc1ccc(NC(=O)C2COc3ccccc3O2)nc1 (stereo unspecified) | 102 | 23.1 µM [rising, single point] | 29.1 µM [rising, single point] |
| CCOC(=O)C1CCCN(C(=O)/C=C/c2ccccc2[N+](=O)[O-])C1 (stereo unspecified) | -15.6 | 6.51 µM [falling, single point] | – |
| Cc1ccc(N(CC(=O)NCC2CCCO2)C(=O)CNS(=O)(=O)c2ccc(Cl)cc2)cc1 (stereo unspecified) | -7.69 | – | – |
| CCC1CCC(C(=O)NNC(=O)c2cc(-c3ccco3)[nH]n2)CC1 (stereo unspecified) | 2.32 | 0.291 µM [falling, partial curve, poor fit] | – |
| COc1ccc(N(C)S(=O)(=O)c2ccc3c(c2)CC(C)N3C(=O)C2CC2)c(OC)c1 (stereo unspecified) | -23.9 | 29.1 µM [falling, partial curve] | – |
| COc1ccc(N2C(=O)CC(N3CCN(c4ccc(Cl)cc4)CC3)C2=O)cc1 (stereo unspecified) | -0.365 | – | – |
| CC(=O)Nc1cccc(C(=O)/C=C/c2ccc(F)cc2)c1 | -36.9 | 29.1 µM [falling, single point] | 23.1 µM [falling, single point] |
| NC(=O)C1CCCCc2c1[nH]c1ccc(Cl)cc21 (stereo unspecified) | -19.9 | 29.1 µM [falling, single point] | – |
| O=C(COC(=O)c1cc(S(=O)(=O)N2CCCCC2)ccc1N1CCOCC1)c1ccccc1 | 2.99 | – | – |
| Cn1c(NNC(=O)C(c2ccccc2)c2ccccc2)cc(=O)n(C)c1=O | 35.4 | 4.61 µM [rising, full curve, poor fit] | 3.66 µM [rising, full curve] |
| c1ccc(-c2cc(-c3ccccc3)n3ncnc3n2)cc1 | -0.686 | – | – |
| COC(OC)c1nc(SCC(=O)Nc2cccc(Cl)c2)ncc1C(=O)O | -28.7 | 4.11 µM [falling, single point] | – |
| COc1cccc(C(=O)N2CCCN(C)CC2)c1OC | 29.3 | 20.6 µM [rising, single point] | – |
| COc1ccc2cc(CN(Cc3cccnc3)S(=O)(=O)c3ccccc3)c(=O)[nH]c2c1 | 41.3 | 4.61 µM [rising, full curve] | 13 µM [rising, single point] |

Complete entries from above.
CCC1CCC(C(=O)NNC(=O)c2cc(-c3ccco3)[nH]n2)CC1 (stereo unspecified) in the list: cell number change [%]: 2.32; AC50 [1]: 0.291 µM [falling, partial curve, poor fit]
CN(c1ccccc1)c1cc(=O)[nH]c(=O)[nH]1 in the list: cell number change [%]: -24.7; AC50 [1]: 0.731 µM [falling, full curve]; AC50 [2]: 0.731 µM [falling, full curve, poor fit]
